What was measured:
Type in all cases: cell-based
MCF-7 = test: MTT cytotoxicity assay; settings: Homo sapiens, MCF7, 48 h, read-out: Cytotoxicity IC50 μM ± S.D. MCF-7
[1] = MTT cytotoxicity assay, normal breast cell line; settings: human, MCF 10A normal breast cells
MDA-MB-231 = test: MTT cytotoxicity assay; settings: Homo sapiens, MDA-MB-231, 48 h, read-out: Cytotoxicity IC50 μM ± S.D. MDA-MB-231

CN[C@@H]1C[C@H]2O[C@@](C)([C@@H]1OC)n1c3ccccc3c3c4c(c5c6ccccc6n2c5c31)C(=O)NC4 [Staurosporine, reference compound]
IC50 (MCF-7): 5.89 ± 0.2 µM
IC50 at 48 h [1]: 13 ± 0.5 µM
IC50 (MDA-MB-231): 7.67 ± 0.3 µM
